From PMC10239980
For part of these data: A negative result means that nothing was seen under these conditions. For part of these data: At least one verdict rests on a figure or table, not on a statement of the authors. For part of these data: Where a protein sequence is shown, tags need not be part of it. For part of these data: The exact form of at least one protein or probe is not confirmed.

Amino acid sequences for entries named in this document (tags omitted). Residues count along the entry.
UniProt P05231, 30-212: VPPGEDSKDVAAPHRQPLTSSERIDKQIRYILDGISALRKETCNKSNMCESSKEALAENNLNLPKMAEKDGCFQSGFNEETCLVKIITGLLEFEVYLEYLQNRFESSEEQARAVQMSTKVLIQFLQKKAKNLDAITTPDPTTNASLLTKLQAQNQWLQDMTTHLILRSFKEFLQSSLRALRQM
UniProt P17900, 32-193: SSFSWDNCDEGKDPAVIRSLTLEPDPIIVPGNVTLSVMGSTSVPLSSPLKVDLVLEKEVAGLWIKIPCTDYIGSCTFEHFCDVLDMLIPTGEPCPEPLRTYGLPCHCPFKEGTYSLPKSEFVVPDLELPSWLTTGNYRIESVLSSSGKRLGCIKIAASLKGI
UniProt P02771, 19-609: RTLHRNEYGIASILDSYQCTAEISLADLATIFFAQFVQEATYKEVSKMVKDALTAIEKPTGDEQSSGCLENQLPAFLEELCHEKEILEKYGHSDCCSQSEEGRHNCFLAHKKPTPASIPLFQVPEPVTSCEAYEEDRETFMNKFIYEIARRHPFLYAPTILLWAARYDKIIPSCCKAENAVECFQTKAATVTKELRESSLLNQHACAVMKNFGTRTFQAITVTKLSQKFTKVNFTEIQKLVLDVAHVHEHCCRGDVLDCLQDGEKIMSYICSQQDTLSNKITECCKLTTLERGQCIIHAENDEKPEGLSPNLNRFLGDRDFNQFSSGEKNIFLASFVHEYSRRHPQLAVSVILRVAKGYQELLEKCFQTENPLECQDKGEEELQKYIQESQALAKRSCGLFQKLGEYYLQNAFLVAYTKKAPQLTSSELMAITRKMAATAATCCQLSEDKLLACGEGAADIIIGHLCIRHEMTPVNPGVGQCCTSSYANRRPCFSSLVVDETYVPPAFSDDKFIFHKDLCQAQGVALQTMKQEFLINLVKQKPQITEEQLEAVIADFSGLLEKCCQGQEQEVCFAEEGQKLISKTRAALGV

Tests used:
[1] = target: Interleukin 6 (IL-6) (Homo sapiens) (UniProt P05231); experiment: electrochemical aptasensor (DPV); details: toluidine blue, 100-fold excess over 5 ng/mL AFP; 10 mM sodium phosphate buffer pH 7.0, 30 min incubation at room temperature; CV in 10 mM PBS pH 7.4 with 5 mM [Fe(CN)6]3-; commercial protein; single-stranded DNA
[2] = target: HER2/ErbB2 (Homo sapiens) (UniProt P04626); experiment: electrochemical aptasensor (DPV); details: toluidine blue, 100-fold excess over 5 ng/mL AFP; 10 mM sodium phosphate buffer pH 7.0, 30 min incubation at room temperature; CV in 10 mM PBS pH 7.4 with 5 mM [Fe(CN)6]3-; commercial protein; single-stranded DNA
[3] = target: GM2A protein (GM2AP) (Homo sapiens) (UniProt P17900); experiment: electrochemical aptasensor (DPV); details: toluidine blue, 100-fold excess over 5 ng/mL AFP; 10 mM sodium phosphate buffer pH 7.0, 30 min incubation at room temperature; CV in 10 mM PBS pH 7.4 with 5 mM [Fe(CN)6]3-; commercial protein; single-stranded DNA
[4] = target: T1, Matrix metalloproteinase-7 (MMP-7) (Homo sapiens) (UniProt P09237); experiment: electrochemical aptasensor (DPV); details: toluidine blue, 100-fold excess over 5 ng/mL AFP; 10 mM sodium phosphate buffer pH 7.0, 30 min incubation at room temperature; CV in 10 mM PBS pH 7.4 with 5 mM [Fe(CN)6]3-; commercial protein; single-stranded DNA
T1 sequence (looked up, limits assumed): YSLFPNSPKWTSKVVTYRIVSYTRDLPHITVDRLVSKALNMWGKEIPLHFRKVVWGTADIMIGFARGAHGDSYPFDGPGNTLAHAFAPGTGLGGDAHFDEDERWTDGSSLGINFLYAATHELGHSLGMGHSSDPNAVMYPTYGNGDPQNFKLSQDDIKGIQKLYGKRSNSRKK

[5] = target: T2, Carcinoembryonic antigen (CEA) (UniProt P06731); experiment: electrochemical aptasensor (DPV); details: toluidine blue, 100-fold excess over 5 ng/mL AFP; 10 mM sodium phosphate buffer pH 7.0, 30 min incubation at room temperature; CV in 10 mM PBS pH 7.4 with 5 mM [Fe(CN)6]3-; commercial protein; single-stranded DNA
T2 sequence (looked up, limits assumed): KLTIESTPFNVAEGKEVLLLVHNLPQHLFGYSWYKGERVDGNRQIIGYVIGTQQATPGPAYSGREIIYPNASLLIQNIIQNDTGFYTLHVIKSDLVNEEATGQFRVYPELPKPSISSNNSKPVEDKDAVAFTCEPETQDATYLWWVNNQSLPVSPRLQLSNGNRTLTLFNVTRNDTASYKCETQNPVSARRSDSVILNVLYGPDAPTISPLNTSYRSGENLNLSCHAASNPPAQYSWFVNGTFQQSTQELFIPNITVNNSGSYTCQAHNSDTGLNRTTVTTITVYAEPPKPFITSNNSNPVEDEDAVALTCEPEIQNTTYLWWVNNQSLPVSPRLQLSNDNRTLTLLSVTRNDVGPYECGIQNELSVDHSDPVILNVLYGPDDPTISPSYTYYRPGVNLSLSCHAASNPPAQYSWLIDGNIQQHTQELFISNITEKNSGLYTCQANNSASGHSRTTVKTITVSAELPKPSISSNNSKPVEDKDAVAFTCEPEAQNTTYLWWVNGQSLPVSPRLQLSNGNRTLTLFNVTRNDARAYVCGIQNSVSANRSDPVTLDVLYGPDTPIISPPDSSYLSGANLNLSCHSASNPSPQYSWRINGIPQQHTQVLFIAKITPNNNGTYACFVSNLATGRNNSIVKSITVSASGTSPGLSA

Alpha-fetoprotein (AFP) = Alpha-fetoprotein (AFP) (UniProt P02771); experiment: not stated (cited); details: 10 mM sodium phosphate buffer pH 7.0, 30 min incubation at room temperature; CV in 10 mM PBS pH 7.4 with 5 mM [Fe(CN)6]3-; commercial protein; single-stranded DNA

Question: Does “GTGACGCTCCTAACGCTGACTCAGGTGCAGTTCTCGACTCGGTCTTGATGTGGGTCCTGTCCGTCCGAACCAATC [AFP-specific aptamer (75-mer)]” bind [1]?
Answer: no binding

Question: Does “GTGACGCTCCTAACGCTGACTCAGGTGCAGTTCTCGACTCGGTCTTGATGTGGGTCCTGTCCGTCCGAACCAATC [AFP-specific aptamer (75-mer)]” bind [2]?
Answer: no binding

Question: Does “GTGACGCTCCTAACGCTGACTCAGGTGCAGTTCTCGACTCGGTCTTGATGTGGGTCCTGTCCGTCCGAACCAATC [AFP-specific aptamer (75-mer)]” bind [3]?
Answer: no binding

Question: Does “GTGACGCTCCTAACGCTGACTCAGGTGCAGTTCTCGACTCGGTCTTGATGTGGGTCCTGTCCGTCCGAACCAATC [AFP-specific aptamer (75-mer)]” bind [4]?
Answer: no binding

Question: Does “GTGACGCTCCTAACGCTGACTCAGGTGCAGTTCTCGACTCGGTCTTGATGTGGGTCCTGTCCGTCCGAACCAATC [AFP-specific aptamer (75-mer)]” bind [5]?
Answer: no binding

Question: And the Kd (Alpha-fetoprotein (AFP))?
Answer: 2.37 nM
